The source of these data is the supplement of paper PMC3682954.

The experiment concerns RAW 264.7. Put plainly: cell viability (MTT) relative to vehicle control; higher = more viable cells. As to conditions: stimulus: HMGB1 5 ug/ml, 18 h.
Setting [1] is: compound concentration: 1 ug/ml.

Structures can show the parent of a compound that is named as a salt. ± gives the standard deviation of the averaged measurements. The list shows a part of the results. Many values rest on one well or one pass, so single values are uncertain.

The term cell viability denotes a read-out of living cells in per cent, often relative to untreated cells. Turning to `O=C1CC(c2ccccc2O)Oc2ccc(O)cc21` (configuration not stated) [2',6-Dihydroxyflavanone], under setting [1], the cell viability was found to be 85.1%. On to `CCN(CC)CCOC(=O)C1(C2CCCCC2)CCCCC1`, for which the cell viability (compound concentration: 3 uM) was determined as 97.6%. Consider `CCN(CC)CCOC(=O)C1(C2CCCCC2)CCCCC1` [Dicyclomine hydrochloride], for which the cell viability (compound concentration: 3 uM) was 100 ± 9%. Turning to `CNCCc1c2cc(O)ccc2n2oc(=O)c(=O)oc12` [N-Methylserotonin oxalate], under setting [1], the cell viability was determined as 101%. For the compound `CC(=O)Oc1ccccc1C(=O)Nc1ncc([N+](=O)[O-])s1`, the cell viability (compound concentration: 3 uM) came to 94%. On to `Cc1[nH]ccc2c1[nH]c1cc(=O)ccc12` [Harmol hydrochloride dihydrate], for which the cell viability under setting [1] was 91%. As to `Cc1[nH]ccc2c1[nH]c1cc(=O)ccc12` [Harmol hydrochloride monohydrate], the cell viability (compound concentration: 3 uM) was determined as 112%. As for `Oc1cc(O)c2c(c1)O[C@H](c1ccc(O)c(O)c1)[C@@H](O)C2`, under “compound concentration: 3 uM”, the cell viability stood at 109%. Same read-out and setting: as for `Oc1cc(O)c2c(c1)O[C@H](c1ccc(O)c(O)c1)[C@@H](O)C2` [(+)-Catechin Hydrate], the figure is 84.4%; as for `C[N+]1(C)CCC(OC(=O)C(c2ccccc2)c2ccccc2)CC1` [4-DAMP methiodide], 100%. Consider `CN(C)CCCN1c2ccccc2Sc2ccc(C(F)(F)F)cc21`, for which, under “compound concentration: 3 uM”, the cell viability turned out to be 102%. For the compound `CN(C)CCCN1c2ccccc2Sc2ccc(C(F)(F)F)cc21` [Triflupromazine hydrochloride], the cell viability (compound concentration: 3 uM) came out at 103 ± 3.3%. With `COc1ccc([C@@H]2CC(=O)c3c(O)cc(O)cc3O2)cc1O` [Hesperetin], the cell viability under setting [1] was determined as 94.4%. `CC[N+](C)(CC)CCOC(=O)C(O)(c1ccccc1)C1CCCCC1` (configuration not stated): the cell viability (compound concentration: 3 uM) was 96.5 ± 5.3%.

As to `N=C(NC(=O)c1nc(Cl)c(N)nc1N)Nc1ccccc1` [Phenamil], the cell viability (compound concentration: 3 uM) came to 108%.

For `N=C(NC(=O)c1nc(Cl)c(N)nc1N)Nc1ccccc1` [Phenamil methanesulfonate], the cell viability (compound concentration: 3 uM) was found to be 100%. As for `COc1cc(C(=O)OCCCN2CCCN(CCCOC(=O)c3cc(OC)c(OC)c(OC)c3)CC2)cc(OC)c1OC` [Dilazep], under “compound concentration: 3 uM”, the cell viability was found to be 98.9%. Turning to `COc1cc(C(=O)OCCCN2CCCN(CCCOC(=O)c3cc(OC)c(OC)c(OC)c3)CC2)cc(OC)c1OC` [Dilazep hydrochloride], the cell viability (compound concentration: 3 uM) is 101%. Take `COc1cc(C(=O)OCCCN2CCCN(CCCOC(=O)c3cc(OC)c(OC)c(OC)c3)CC2)cc(OC)c1OC` [Dilazep dihydrochloride]: the cell viability (compound concentration: 3 uM) is 122%.

In the case of `COc1ccc2c(c1)CCC1C2CCC2(C)C(NCCCCCCN3C(=O)C=CC3=O)CCC12` (configuration not stated), where the note is “compound concentration: 3 uM”, the cell viability is 106%. With `C[Si](C)(C)c1cn([C@H]2C[C@H](O)[C@@H](CO)O2)c(=O)[nH]c1=O` [Xylure], the cell viability under setting [1] came to 85.7%.

For `O=S(=O)(O)c1cc(N=C=S)ccc1/C=C/c1ccc(N=C=S)cc1S(=O)(=O)O`, the cell viability (compound concentration: 3 uM) stood at 142%. As for `C#CC(N)CCC(=O)O` (configuration not stated) [gamma-Acetylinic GABA], the cell viability (compound concentration: 3 uM) came out at 97.3%. In the case of `O=C1c2c(O)cccc2Cc2cccc(O)c21` [Anthralin], under “compound concentration: 3 uM”, the cell viability was 127%. Consider `O=C1c2c(O)cccc2Cc2cccc(O)c21`, for which the cell viability (compound concentration: 3 uM) was found to be 104%. `C/C=C/C(=O)OCC1OC(Oc2cc(O)c3c(=O)cc(-c4ccc(O)c(OC)c4)oc3c2)C(O)C(O)C1O` (configuration not stated) [Thermopsoside, crotonoyl]: the cell viability under setting [1] amounted to 99.1%. Regarding `CC[N+](C)(C)c1cccc(O)c1` [Edrophonium chloride], the cell viability (compound concentration: 3 uM) was found to be 103 ± 3.2%.

With `CC[N+](C)(C)c1cccc(O)c1`, the cell viability (compound concentration: 3 uM) turned out to be 105%. For `CO[C@@H]1[C@@H](O[C@@H]2O[C@H](C)[C@@H](O[C@H]3C[C@@](C)(O)[C@@H](OC(=O)CC(C)C)[C@H](C)O3)[C@H](N(C)C)[C@H]2O)[C@@H](CC=O)C[C@@H](C)[C@@H](O)/C=C/C=C/C[C@@H](C)OC(=O)C[C@H]1O`, the cell viability (compound concentration: 3 uM) worked out at 102%. On to `CC(=O)[C@@]1(O)CC[C@H]2[C@@H]3C=C(Cl)C4=CC(=O)[C@@H]5C[C@@H]5[C@]4(C)[C@H]3CC[C@@]21C`, for which the cell viability (compound concentration: 3 uM) is 109%. For the compound `Cc1cn([C@H]2C[C@H](O)[C@@H](C)O2)c(=O)[nH]c1=O` [5'-Deoxythymidine], under setting [1], the cell viability amounted to 107%. For `Nc1[nH]cnc2ncnc1-2`, for the setting “compound concentration: 3 uM”, the cell viability is 102%. As to `OC(Cn1cncn1)(Cn1cncn1)c1ccc(F)cc1F` [Fluconazole], the cell viability (compound concentration: 3 uM) was 104 ± 10%.

As to `OC(Cn1cncn1)(Cn1cncn1)c1ccc(F)cc1F`, the cell viability (compound concentration: 3 uM) was 109%. Take `CCCOc1cc(N)ccc1C(=O)OCCN(CC)CC` [Propoxycaine hydrochloride]: the cell viability (compound concentration: 3 uM) stood at 91.4%. Same read-out and setting: as for `NCCc1c[nH]cn1`, the figure is 102%.

Regarding `NCCc1c[nH]cn1` [Histamine Dihydrochloride], the cell viability under setting [1] is 103%. Consider `NCCc1c[nH]cn1` [Histamine dihydrochloride], for which the cell viability (compound concentration: 3 uM) came out at 100%. Same read-out and setting: as for `Cc1cn[nH]c1` [4-Methylpyrazole hydrochloride], the figure is 112%; as for `Cc1cn[nH]c1`, 112%. Take `OC[C@H]1O[C@@H](n2cnc3c(O)nc(O)nc32)[C@H](O)[C@@H]1O` [Xanthosine dihydrate]: under setting [1], the cell viability came to 96.2%.

As for `OCCN1CCN(CC/C=C2/c3ccccc3Sc3ccc(C(F)(F)F)cc32)CC1` [cis-(Z)-Flupenthixol dihydrochloride], where the note is “compound concentration: 3 uM”, the cell viability was determined as 95.5%.
